Results deposited as PubChem BioAssay AID493246 (Drosophila RNAi Screening Center, 2011)

- Screen: 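Genome-wide search for dsRNAs that reduce cell number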 (primary screen)
- Cell system: Drosophila Kc and S2R+ cells
- Reagent: long dsRNA against Drosophila genes
- Detection: 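Raw, unnormalised count of remaining cells in each well; per-plate z-scores of cell number underlie the calls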
- Reading the numbers: Kc cell number and S2R+ cell number: higher = more cells remaining
- Call rule: 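Counted as a hit if cell number falls by a z-score of at least 3 within its plate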
In all, the deposit lists about 21,000 reagents; below is an unselected part of those that have a named target and a result. Of all reagents, 429 (2%) were called active. 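Values are raw and not normalised between plates; calls rest on per-plate z-scores that were not deposited.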 A number with no mark means an inactive call. Names joined by + are all predicted targets of the reagent. Not stated in the record: the amount of reagent, the time to read-out.

Gene	amplicon	Kc cell number, rep 1	Kc cell number, rep 2	S2R+ cell number, rep 1	S2R+ cell number, rep 2
cora	DRSC07597	1.73e6	1.67e6	1.23e6	1.29e6
Vps29	DRSC00666	1.31e6	1.31e6	9.97e5	9.09e5
CG33964 + CG13175	DRSC06300	1.58e6	1.66e6	1.29e6	1.32e6
CG33964 + CG13175	DRSC06301	1.51e6	1.57e6	1.23e6	1.29e6
CG33964 + CG13175	DRSC07184	1.46e6	1.58e6	1.29e6	1.36e6
sigmar	DRSC04449	1.38e6	1.45e6	1.11e6	1.24e6
Usp14	DRSC02853	1.48e6	1.54e6	1.03e6	1.09e6
Mat1	DRSC07465	1.84e6	1.71e6	1.39e6	1.49e6
ND2 (retired record)	DRSC21274	1.61e6	1.63e6	1.12e6	1.28e6
CG4884	DRSC15671	1.72e6	1.80e6	1.03e6	1.06e6
eIF2Bbeta	DRSC18465	1.62e6	1.65e6	1.02e6	1.17e6
loh	DRSC01122	1.46e6	1.58e6	1.06e6	1.13e6
loh	DRSC02943	1.75e6	1.81e6	1.16e6	1.32e6
Spn47C	DRSC07030	1.19e6	1.29e6	1.01e6	1.01e6
CG3792	DRSC02725	1.45e6	1.46e6	1.24e6	1.37e6
COX5A	DRSC16611	1.40e6	1.48e6	1.05e6	1.17e6
Scr	DRSC12604	8.88e5 (active)	8.62e5	6.43e5	8.23e5
pita	DRSC04006	1.45e6	1.46e6	9.96e5	1.13e6
pita	DRSC04435	1.50e6	1.52e6	1.19e6	1.29e6
Acsx2	DRSC14308	1.21e6	1.23e6	1.09e6	1.16e6

Not a retest: entries from further up.
Gene	amplicon	Kc cell number, rep 1	Kc cell number, rep 2	S2R+ cell number, rep 1	S2R+ cell number, rep 2
Vps29	DRSC00666	1.31e6	1.31e6	9.97e5	9.09e5
CG33964 + CG13175	DRSC06300	1.58e6	1.66e6	1.29e6	1.32e6
CG33964 + CG13175	DRSC06301	1.51e6	1.57e6	1.23e6	1.29e6

More results follow:
Gene	amplicon	Kc cell number, rep 1	Kc cell number, rep 2	S2R+ cell number, rep 1	S2R+ cell number, rep 2
CG43345	DRSC03164	1.39e6	1.47e6	1.14e6	1.11e6
CG16772	DRSC02516	1.58e6	1.65e6	1.24e6	2.63e5
CG3655	DRSC17676	1.41e6	1.58e6	1.10e6	1.12e6
CG3655	DRSC18181	1.55e6	1.53e6	1.08e6	1.21e6
CG3655	DRSC18477	1.48e6	1.49e6	1.06e6	1.14e6
mRpL22	DRSC19915	1.50e6	1.51e6	9.66e5	1.09e6
CG32091	DRSC10141	1.58e6	1.57e6	1.22e6	1.30e6
CG32091	DRSC10820	1.51e6	1.48e6	1.22e6	1.36e6
Dgk	DRSC05064	1.50e6	1.49e6	7.59e5	8.66e5
Dgk	DRSC05065	1.50e6	1.54e6	9.65e5	1.11e6
Dgk	DRSC06171	1.49e6	1.74e6	1.15e6	1.37e6
Dgk	DRSC06782	1.33e6	1.32e6	1.10e6	1.17e6
CG34124	DRSC00849	1.62e6	1.60e6	1.08e6	1.26e6
Ir87a	DRSC14836	1.23e6	1.31e6	1.09e6	1.23e6
png	DRSC18582	1.49e6	1.50e6	9.68e5	1.07e6
CG17290	DRSC06662	1.64e6	1.62e6	1.26e6	1.39e6
Alp8	DRSC04353	1.68e6	1.79e6	1.35e6	3.94e5
Evi5	DRSC19421	1.55e6	1.56e6	1.02e6	1.16e6
CG17264	DRSC00500	1.31e6	1.38e6	7.22e5	9.40e5
Cypl	DRSC08362	1.34e6	1.31e6	1.10e6	1.32e6
Sp1	DRSC17622	1.42e6	1.69e6	1.04e6	1.12e6
Sp1	DRSC18717	1.50e6	1.47e6	1.04e6	1.15e6
IntS2	DRSC20094	1.22e6	1.25e6	8.92e5	1.01e6
Unc-115b + p24-2 + Unc-115a	DRSC16502	1.65e6	1.59e6	1.27e6	1.38e6
Mics1	DRSC12537	1.41e6	1.55e6	1.23e6	1.31e6
SPR	DRSC17390	1.56e6	1.70e6	1.07e6	1.11e6
SPR	DRSC17886	1.67e6	1.62e6	1.04e6	1.20e6
SPR	DRSC18114	1.58e6	1.61e6	1.02e6	1.10e6
kmr	DRSC12986	1.55e6	1.73e6	1.07e6	1.22e6
kmr	DRSC14827	1.36e6	1.58e6	9.93e5	1.15e6
kmr	DRSC14828	1.36e6	1.60e6	1.03e6	1.10e6
kmr	DRSC16472	1.43e6	1.54e6	1.29e6	1.30e6
CG34316	DRSC13080	1.41e6	1.63e6	1.03e6	1.18e6
subdued	DRSC15137	1.45e6	1.57e6	1.11e6	1.17e6
CG18599	DRSC15357	1.49e6	1.50e6	1.01e6	1.16e6
Cyp6a17	DRSC07378	1.48e6	1.54e6	1.09e6	1.02e6
neo	DRSC16316	5.43e5		8.15e5	
Oseg5	DRSC03209	1.82e6	1.89e6	1.23e6	2.65e5
Agpat4	DRSC10446	1.40e6	1.45e6	1.20e6	1.35e6
